# Assay results from the supplement of paper PMC11732987, “Enantioselective OTUD7B fragment discovery through chemoproteomics screening and high-throughput optimisation” (Communications Chemistry, 2025).
# Protein sequences, listed by entry. Tags and fused reporters are not part of them. Lines headed by an entry give the natural chain unless they say otherwise; changes in a name come on top. Residues count along the entry.
# UniProt Q9BU23, 681-701: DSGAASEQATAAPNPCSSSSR
# UniProt Q03164, whole entry, looked up: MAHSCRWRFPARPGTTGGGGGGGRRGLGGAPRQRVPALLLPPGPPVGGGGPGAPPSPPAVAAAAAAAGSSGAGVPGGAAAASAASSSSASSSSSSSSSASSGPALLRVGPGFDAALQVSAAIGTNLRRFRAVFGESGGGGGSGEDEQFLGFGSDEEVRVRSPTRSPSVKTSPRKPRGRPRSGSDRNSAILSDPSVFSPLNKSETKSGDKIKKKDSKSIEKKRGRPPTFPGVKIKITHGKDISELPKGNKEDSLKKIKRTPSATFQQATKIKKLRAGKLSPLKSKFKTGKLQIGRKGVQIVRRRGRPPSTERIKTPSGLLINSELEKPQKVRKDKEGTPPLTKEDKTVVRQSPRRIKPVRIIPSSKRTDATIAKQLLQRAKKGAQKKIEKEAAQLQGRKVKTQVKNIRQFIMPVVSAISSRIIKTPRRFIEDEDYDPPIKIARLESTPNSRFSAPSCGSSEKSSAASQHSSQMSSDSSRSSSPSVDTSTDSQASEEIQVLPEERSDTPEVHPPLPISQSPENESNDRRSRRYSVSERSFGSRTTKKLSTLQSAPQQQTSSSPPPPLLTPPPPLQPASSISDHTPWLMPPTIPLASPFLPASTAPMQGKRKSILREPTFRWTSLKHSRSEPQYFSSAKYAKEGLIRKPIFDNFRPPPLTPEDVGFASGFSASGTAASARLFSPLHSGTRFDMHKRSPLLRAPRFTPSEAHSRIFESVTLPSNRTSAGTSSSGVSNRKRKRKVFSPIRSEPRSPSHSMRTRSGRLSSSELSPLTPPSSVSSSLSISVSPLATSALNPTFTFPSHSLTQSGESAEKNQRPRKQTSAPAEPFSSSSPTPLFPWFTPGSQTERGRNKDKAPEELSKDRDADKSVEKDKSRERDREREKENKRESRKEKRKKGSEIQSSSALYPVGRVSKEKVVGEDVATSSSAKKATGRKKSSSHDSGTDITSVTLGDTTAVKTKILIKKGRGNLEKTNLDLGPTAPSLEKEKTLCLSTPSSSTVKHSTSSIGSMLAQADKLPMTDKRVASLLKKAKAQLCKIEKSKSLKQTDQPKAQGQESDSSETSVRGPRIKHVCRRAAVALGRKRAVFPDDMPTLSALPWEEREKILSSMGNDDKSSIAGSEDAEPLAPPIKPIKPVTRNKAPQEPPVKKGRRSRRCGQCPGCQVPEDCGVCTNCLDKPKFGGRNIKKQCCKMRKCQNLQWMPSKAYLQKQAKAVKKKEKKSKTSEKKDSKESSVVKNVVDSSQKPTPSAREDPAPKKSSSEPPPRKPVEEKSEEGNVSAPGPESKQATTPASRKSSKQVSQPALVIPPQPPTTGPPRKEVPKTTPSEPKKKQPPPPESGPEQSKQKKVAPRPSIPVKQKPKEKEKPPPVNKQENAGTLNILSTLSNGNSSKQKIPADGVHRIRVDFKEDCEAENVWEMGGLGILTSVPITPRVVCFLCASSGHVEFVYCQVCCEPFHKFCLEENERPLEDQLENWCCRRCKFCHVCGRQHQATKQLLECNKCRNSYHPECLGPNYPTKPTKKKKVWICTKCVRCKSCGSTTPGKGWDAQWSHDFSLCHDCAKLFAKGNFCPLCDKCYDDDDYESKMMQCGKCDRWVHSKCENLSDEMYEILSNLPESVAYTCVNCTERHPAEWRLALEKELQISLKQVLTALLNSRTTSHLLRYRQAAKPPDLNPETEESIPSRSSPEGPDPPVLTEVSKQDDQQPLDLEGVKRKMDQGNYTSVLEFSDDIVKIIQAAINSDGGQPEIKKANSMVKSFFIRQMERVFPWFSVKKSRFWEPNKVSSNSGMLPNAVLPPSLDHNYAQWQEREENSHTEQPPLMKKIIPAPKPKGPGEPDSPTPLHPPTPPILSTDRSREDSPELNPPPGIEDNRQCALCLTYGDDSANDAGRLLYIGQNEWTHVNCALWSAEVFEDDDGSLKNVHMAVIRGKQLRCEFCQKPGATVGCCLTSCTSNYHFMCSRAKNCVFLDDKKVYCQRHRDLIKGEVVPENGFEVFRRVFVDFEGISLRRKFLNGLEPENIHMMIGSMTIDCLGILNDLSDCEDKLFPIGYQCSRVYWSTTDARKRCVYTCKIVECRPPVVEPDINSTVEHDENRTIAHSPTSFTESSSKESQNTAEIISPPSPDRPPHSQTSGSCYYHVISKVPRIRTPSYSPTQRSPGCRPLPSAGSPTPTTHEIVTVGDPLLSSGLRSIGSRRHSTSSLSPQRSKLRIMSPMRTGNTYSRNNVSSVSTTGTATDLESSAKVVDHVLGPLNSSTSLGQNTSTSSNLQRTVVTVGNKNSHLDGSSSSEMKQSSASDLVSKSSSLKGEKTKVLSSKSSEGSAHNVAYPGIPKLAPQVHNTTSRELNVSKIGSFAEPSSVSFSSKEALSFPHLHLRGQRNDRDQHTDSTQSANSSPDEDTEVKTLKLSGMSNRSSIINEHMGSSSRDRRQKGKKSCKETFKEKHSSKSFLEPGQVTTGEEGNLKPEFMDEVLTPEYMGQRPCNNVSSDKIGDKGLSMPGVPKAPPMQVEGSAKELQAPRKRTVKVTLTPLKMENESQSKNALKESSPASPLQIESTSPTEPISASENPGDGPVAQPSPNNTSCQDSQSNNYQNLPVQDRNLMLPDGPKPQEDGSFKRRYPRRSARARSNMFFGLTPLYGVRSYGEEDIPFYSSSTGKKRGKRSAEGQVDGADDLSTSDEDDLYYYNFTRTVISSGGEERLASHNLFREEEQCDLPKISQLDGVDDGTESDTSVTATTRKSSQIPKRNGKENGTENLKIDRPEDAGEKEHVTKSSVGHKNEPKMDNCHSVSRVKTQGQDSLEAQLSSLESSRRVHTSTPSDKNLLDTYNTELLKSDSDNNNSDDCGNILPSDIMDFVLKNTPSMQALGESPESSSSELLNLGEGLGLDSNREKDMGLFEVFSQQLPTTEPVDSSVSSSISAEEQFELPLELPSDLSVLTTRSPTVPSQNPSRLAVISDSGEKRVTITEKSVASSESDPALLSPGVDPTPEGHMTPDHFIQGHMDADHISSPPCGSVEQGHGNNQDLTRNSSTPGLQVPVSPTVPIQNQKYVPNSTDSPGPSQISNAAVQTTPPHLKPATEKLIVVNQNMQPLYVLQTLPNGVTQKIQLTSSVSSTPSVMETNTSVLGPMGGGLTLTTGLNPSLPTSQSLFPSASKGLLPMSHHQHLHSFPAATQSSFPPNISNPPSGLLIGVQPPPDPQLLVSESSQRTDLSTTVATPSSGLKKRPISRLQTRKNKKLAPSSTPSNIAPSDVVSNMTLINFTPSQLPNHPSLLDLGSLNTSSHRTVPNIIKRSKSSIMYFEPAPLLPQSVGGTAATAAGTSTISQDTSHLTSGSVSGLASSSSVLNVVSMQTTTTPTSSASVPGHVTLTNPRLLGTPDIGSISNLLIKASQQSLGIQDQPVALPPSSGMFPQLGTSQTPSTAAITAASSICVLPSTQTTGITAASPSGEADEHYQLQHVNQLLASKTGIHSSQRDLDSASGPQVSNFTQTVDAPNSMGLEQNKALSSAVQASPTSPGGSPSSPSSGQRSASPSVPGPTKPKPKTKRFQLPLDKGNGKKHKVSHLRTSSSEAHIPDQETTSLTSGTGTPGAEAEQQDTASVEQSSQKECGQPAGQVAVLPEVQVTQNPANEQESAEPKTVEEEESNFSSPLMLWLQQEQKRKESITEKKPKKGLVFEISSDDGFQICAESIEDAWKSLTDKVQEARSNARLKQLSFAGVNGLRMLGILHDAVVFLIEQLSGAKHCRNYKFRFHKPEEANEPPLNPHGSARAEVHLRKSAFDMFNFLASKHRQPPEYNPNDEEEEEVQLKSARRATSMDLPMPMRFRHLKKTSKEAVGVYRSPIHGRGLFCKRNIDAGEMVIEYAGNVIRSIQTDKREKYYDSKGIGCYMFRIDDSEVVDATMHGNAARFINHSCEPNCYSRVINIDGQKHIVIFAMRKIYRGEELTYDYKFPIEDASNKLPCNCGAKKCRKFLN
# UniProt Q9NSK0, 38-67: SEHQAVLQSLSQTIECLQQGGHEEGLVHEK
# UniProt P53667: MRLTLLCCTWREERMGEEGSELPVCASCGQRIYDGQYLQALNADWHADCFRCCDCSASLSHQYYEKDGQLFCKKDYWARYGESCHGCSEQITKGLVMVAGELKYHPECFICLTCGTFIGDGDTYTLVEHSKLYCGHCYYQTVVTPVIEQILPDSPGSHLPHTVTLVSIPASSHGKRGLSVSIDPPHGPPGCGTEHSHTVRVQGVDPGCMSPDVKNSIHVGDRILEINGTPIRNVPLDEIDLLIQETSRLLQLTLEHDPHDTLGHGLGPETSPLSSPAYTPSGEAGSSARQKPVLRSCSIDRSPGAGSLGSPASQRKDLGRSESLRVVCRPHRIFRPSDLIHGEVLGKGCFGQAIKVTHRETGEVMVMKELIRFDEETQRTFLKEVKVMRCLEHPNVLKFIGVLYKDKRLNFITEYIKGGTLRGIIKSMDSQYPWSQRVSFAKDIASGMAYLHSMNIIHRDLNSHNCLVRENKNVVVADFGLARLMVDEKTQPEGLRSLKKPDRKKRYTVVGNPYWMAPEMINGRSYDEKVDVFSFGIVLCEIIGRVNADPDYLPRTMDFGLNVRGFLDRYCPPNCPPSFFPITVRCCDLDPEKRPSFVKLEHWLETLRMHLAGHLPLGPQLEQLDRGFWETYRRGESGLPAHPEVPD
# UniProt Q9Y2M5: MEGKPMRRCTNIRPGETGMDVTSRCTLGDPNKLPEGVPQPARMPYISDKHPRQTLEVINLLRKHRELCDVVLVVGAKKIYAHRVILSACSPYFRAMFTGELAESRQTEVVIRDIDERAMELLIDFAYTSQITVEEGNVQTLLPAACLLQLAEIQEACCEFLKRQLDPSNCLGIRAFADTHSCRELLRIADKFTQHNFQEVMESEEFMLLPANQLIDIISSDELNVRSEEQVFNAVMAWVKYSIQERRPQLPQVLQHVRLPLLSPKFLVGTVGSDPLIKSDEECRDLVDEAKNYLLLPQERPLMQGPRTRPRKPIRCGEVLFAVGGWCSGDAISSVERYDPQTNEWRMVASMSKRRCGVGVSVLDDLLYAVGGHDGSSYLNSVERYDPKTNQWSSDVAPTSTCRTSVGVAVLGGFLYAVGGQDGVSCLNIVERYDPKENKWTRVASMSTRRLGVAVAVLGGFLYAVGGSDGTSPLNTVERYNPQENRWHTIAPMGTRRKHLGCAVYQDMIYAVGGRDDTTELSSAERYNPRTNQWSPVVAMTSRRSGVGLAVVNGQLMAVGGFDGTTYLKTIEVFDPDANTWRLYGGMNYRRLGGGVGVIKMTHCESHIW
# UniProt Q9BRT6: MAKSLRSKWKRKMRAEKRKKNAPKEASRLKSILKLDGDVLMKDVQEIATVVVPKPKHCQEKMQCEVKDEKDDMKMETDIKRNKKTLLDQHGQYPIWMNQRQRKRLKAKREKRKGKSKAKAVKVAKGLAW
# UniProt O14686, 372-397: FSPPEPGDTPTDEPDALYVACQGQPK
# UniProt Q9NRM7: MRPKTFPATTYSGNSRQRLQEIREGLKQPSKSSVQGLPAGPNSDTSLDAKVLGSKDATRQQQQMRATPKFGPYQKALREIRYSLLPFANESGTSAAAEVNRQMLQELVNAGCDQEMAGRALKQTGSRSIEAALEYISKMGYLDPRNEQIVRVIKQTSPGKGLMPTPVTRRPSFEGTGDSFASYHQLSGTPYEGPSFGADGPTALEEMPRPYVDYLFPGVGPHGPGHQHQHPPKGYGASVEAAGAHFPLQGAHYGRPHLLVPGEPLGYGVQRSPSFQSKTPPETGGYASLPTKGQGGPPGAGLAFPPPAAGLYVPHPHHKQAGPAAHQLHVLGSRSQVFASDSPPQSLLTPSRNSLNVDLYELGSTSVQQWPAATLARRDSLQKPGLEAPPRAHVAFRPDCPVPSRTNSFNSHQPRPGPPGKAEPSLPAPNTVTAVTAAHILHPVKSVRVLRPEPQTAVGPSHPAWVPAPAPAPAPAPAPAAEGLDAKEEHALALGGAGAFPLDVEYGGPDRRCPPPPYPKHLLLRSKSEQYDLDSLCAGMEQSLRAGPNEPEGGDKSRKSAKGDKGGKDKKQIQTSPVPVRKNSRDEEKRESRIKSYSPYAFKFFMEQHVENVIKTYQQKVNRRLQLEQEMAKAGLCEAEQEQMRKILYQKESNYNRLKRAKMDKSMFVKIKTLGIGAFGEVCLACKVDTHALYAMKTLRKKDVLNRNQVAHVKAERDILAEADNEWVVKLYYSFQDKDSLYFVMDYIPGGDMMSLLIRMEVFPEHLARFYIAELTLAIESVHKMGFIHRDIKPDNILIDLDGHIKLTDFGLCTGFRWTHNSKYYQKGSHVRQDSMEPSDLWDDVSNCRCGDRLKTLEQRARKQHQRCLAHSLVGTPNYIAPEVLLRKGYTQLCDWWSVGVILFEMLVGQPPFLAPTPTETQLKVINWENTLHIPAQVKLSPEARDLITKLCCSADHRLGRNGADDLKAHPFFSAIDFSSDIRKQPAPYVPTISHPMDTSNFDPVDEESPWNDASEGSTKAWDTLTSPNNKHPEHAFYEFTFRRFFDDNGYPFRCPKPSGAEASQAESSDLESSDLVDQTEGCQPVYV
# Some of the results follow. The data scatter; read single values as rough.
# What was measured:
# [1] = compound: ClCC(=O)N[C@@H]1CCCc2ccccc12; assay: log2 mean competition ratio of IA-DTB cysteine labelling (DMSO/compound) (log2 ratio); higher = stronger cysteine engagement by compound; conditions: treatment time: 4 h, cell line lysate: HEK293T
# Experimental: (§1)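 IA-DTB competitive cysteine chemoproteomics in HEK293T RIPA lysate. Lysates were treated with compound 29 or 30 at 50 or 200 µM for 4 h, then IA-DTB (500 µM, 1 h), trypsin-digested, NeutrAvidin-enriched and analysed by diaPASEF. Competition ratio = intensity DMSO / intensity compound (n=4 treated, n=64 DMSO); binding: mean log2 CR ≥ 1 and p ≤ 0.05 plus QC filters. Target is the cysteine site.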
# [2] = compound: ClCC(=O)N[C@H]1CCCc2ccccc12; assay: as above; conditions: treatment time: 4 h, cell line lysate: HEK293T
# Experimental: as §1
Target,log2 mean competition ratio ([1]; 50 µM),log2 mean competition ratio ([1]; 200 µM),log2 mean competition ratio ([2]; 50 µM),log2 mean competition ratio ([2]; 200 µM)
LMF2 C696 (UniProt Q9BU23),-0.202,0.165,-0.198,0.112
KRIT1 C297 (UniProt O00522),-0.0811,0.224,-0.276,0.092
KNOP1 C172 (UniProt Q1ED39),0.308,0.0532,-0.741,0.0322
LEMD3 C547 (UniProt Q9Y2U8),-0.0592,0.0386,-0.23,-0.0727
KIF7 C179,-0.122,-0.369,0.682,-0.168
LETMD1 C218 (UniProt Q6P1Q0),-0.0936,-0.362,-0.0367,-0.0295
KMT2A C990 (UniProt Q03164),0.105,-0.0911,0.00153,-0.229
KLC4 C53 (UniProt Q9NSK0),0.227,0.0351,-0.149,-0.315
LCMT2 C133 (UniProt O60294),-0.0791,0.0147,-0.145,0.0602
LIMK1 C390 (UniProt P53667),0.122,-0.256,-0.773,0.0983
LRBA C2820,-0.0284,-0.18,0.0924,-0.213
KLHL20 C25 (UniProt Q9Y2M5),-0.0851,0.173,-0.324,-0.0432
LLPH C64 (UniProt Q9BRT6),0.241,0.183,-0.0987,0.174
LLGL1 C947 (UniProt Q15334),0.142,0.0453,-0.143,0.0987
KPNA2 C133 (UniProt P52292),0.0601,0.612,0.138,0.224
LRCH2 C265,-0.0322,-0.129,0.229,-0.169
KMT2D C392 (UniProt O14686),-0.258,0.268,0.0512,-0.0244
LATS2 C813 (UniProt Q9NRM7),-0.316,-0.164,-0.467,0.109
KIFC1 C485 (UniProt Q9BW19),-0.243,-0.096,-0.00811,-0.0848
KMT2A C1536 (UniProt Q03164),-0.0588,-0.0476,-0.41,0.0705
L2HGDH C187 (UniProt Q9H9P8),0.165,0.244,-0.388,0.0694
LARS1 C554,0.06,0.362,-0.099,0.288

# Another view of part of the listing above:
Target	log2 mean competition ratio ([1]; 50 µM)	log2 mean competition ratio ([1]; 200 µM)	log2 mean competition ratio ([2]; 50 µM)	log2 mean competition ratio ([2]; 200 µM)
LATS2 C813 (UniProt Q9NRM7)	-0.316	-0.164	-0.467	0.109
KMT2A C1536 (UniProt Q03164)	-0.0588	-0.0476	-0.41	0.0705
